Test results from PubChem BioAssay AID504467 (National Center for Advancing Translational Sciences (NCATS), 2011).
About 7,700 (2.3%) of roughly 330,000 compounds were called active. Inconclusive results, whose numbers are uncertain, are shown with a selection of clear calls. The call rests on the fitted dose curve; in most records, active means well fitted inhibition curve with a large enough effect; inconclusive means small, poorly fitted or top-dose-only effect, or effect the other way; inactive means flat fitted curve, though single readings scatter. Potencies of inconclusive entries are doubtful fits and often do not repeat.

assay: qHTS screen for small molecules that inhibit ELG1-dependent DNA repair in human embryonic kidney (HEK293T) cells expressing luciferase-tagged ELG1; details: HEK293T ELG1-luciferase reporter, luminescence, 16 h, DNA damage induced by 5-fluorouridine; activity change, negative = inhibition: at 46.1 µM (top of the series); further: nearly all actives have a fitted effect of over 55% in size
Method in brief: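 Step one: seed 2,000 cells per well. Step two: pin-transfer compound or DMSO alongside 5-fluorouridine. Step three: incubate 16 hr, 37 °C, 5% CO2. Step four: add ONE-Glo, wait 30 min, read luminescence.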
On the % scale 0 is the no-effect control and ±100 the full control effect; potency means the concentration at half of the fitted maximal effect.

| SMILES | Potency | activity change, negative = inhibition |
| --- | --- | --- |
| O=C(c1ccc(=O)[nH]n1)N1CCN(S(=O)(=O)c2cccc(F)c2)CC1 | inactive |  |
| COc1ccc(S(=O)(=O)N2CCCOC2CNC(=O)C(=O)NCCCN2CCOCC2)cc1C (configuration not stated) | inactive |  |
| Cc1cc(-c2ccc(C(C)C)c(S(=O)(=O)Nc3cc(C)on3)c2)on1 | inconclusive: 29.1 µM [activator, partial curve, poor fit] |  |
| COc1ccc(S(=O)(=O)NCc2ccc(C(=O)N3CCN(c4ccccn4)CC3)cc2)cc1 | inconclusive: 16.4 µM [inhibitor, partial curve] |  |
| O=C(COC(=O)c1ccccc1O)Nc1cccc2ccccc12 | inconclusive: 13 µM [activator, partial curve, poor fit] |  |
| C/C(=N\NC(=O)CN1CCCCC1)c1ccccc1O | inconclusive: 18.3 µM [inhibitor, single point] |  |
| COc1ccc(-c2cc(C(=O)N3CCN(c4cccc(C)c4C)CC3)c3ccccc3n2)cc1OC | inconclusive: 4.11 µM [inhibitor, single point] |  |
| O=C(CCNc1ccc(F)cc1)c1ccco1 | inconclusive: 10.3 µM [activator, single point] |  |
| CC(=O)c1c(C)n([O-])c2cc(F)c(F)cc2[n+]1=O | inconclusive: 29.1 µM [inhibitor, single point] |  |
| Cc1cc(C(=O)OCC(=O)Nc2ccccc2C#N)c(C)o1 | inconclusive: 16.4 µM [activator, partial curve, poor fit] |  |
| O=C(CSc1nc2ccccc2[nH]1)c1cccs1 | inconclusive: 5.8 µM [activator, partial curve] |  |
| CN(C)c1cccc(C(=O)OCC(=O)Nc2ccccc2-c2ccccc2)c1 | inconclusive: 23.1 µM [inhibitor, single point] |  |
| O=[N+]([O-])C(/C=C(\Cl)[N+](=O)[O-])=C(N1CCCCC1)N1CCCCC1 | inactive |  |
| CCOc1ccccc1N1CC(C(=O)Nc2cc(S(C)(=O)=O)ccc2Cl)CC1=O (configuration not stated) | inactive |  |
| O=C(CCc1ccccc1)Nc1ccccc1C(=O)NCc1ccco1 | inconclusive: 25.9 µM [inhibitor, partial curve, poor fit] |  |
| Cc1cccc(NC(=O)c2ccc(N(C)C3CCCCC3)c([N+](=O)[O-])c2)n1 | inconclusive: 23.1 µM [inhibitor, single point] |  |
| O=C(Nc1ccc2c(c1)OCCO2)C1CCN(c2ncccn2)CC1 | inconclusive: 20.6 µM [activator, partial curve] |  |
| COc1ccccc1NC(CC(=O)c1ccccc1)C(=O)OCC(=O)c1ccc(C)cc1 (configuration not stated) | inconclusive: 4.61 µM [activator, partial curve] |  |
| C=CCn1c(SCC(=O)N2CCOCC2)nc2sc(CC)cc2c1=O | inconclusive: 29.1 µM [inhibitor, partial curve, poor fit] |  |
| CCN(CC)S(=O)(=O)c1ccc2oc(C(=O)Nc3ccc(OC)cc3OC)c(C)c2c1 | inconclusive: 3.26 µM [inhibitor, partial curve, poor fit] |  |
| O=C(NCC1CCCO1)c1cccc2ccccc12 (configuration not stated) | inconclusive: 20.6 µM [activator, partial curve, poor fit] |  |

| SMILES | Potency | activity change, negative = inhibition |
| --- | --- | --- |
| CSc1ncc(C(=O)Nc2ccc(C(C)=O)cc2)c(-c2ccccc2)n1 | inconclusive: 5.8 µM [activator, partial curve] |  |
| Cc1cc(N2CCN(C(=O)c3ccco3)CC2)n2nc(-c3cccc(Cl)c3)cc2n1 | active: 13 µM |  |
| COC(=O)[C@@H]1CC[C@H](C)[C@@H](c2ccc(C)cc2)N1C(=O)c1ccc(/C=N/OC[C@@H](O)[C@H]2O[C@@H]3OC(C)(C)O[C@@H]3[C@H]2O)cc1 | inconclusive: 29.1 µM [inhibitor, single point] |  |
| CCOC(=O)/C(=N\Nc1cc(Cl)ccc1Cl)N1CCN(CC)CC1 | inactive |  |
| CC(=O)N1c2ccccc2-c2nc3ccccc3n2C1C (configuration not stated) | inactive |  |
| COc1ccc(C(=O)/C=C/C(=O)N(CC(=O)NC2CCCCC2)CC2CCCO2)c(O)c1 (configuration not stated) | inconclusive: 29.1 µM [inhibitor, single point] |  |
| CCOc1ccc(S(=O)(=O)N2CCCC(C(=O)N3CCOCC3)C2)cc1 (configuration not stated) | inactive |  |
| O=S(=O)(c1ccc2nc(N3CCN(c4ccccc4)CC3)ccc2c1)N1CCCCC1 | inactive |  |
| Cc1ccccc1Nc1nc(Nc2ccccc2C)nc(SC2=NCCS2)n1 | inconclusive: 23.1 µM [inhibitor, single point] |  |
| Cc1ccc(Cl)c2sc(N3CCN(C(=O)c4ccco4)CC3)nc12 | inconclusive: 29.1 µM [inhibitor, single point] |  |
| C=CCn1c(SCC(=O)c2ccc(O)c(O)c2)nnc1-c1cccc(C)c1 | inactive |  |
| O=C(NC(=O)c1ccccc1)Nc1ccc(-c2cnco2)cc1 | inconclusive: 14.6 µM [activator, partial curve] |  |
| COc1ccc(-c2cc(C(=O)N3CCN(c4ccccc4OC)CC3)no2)cc1 | inconclusive: 20.6 µM [inhibitor, single point] |  |
| COc1ccc(C(CNC(=O)c2cc(=O)[nH]c3ccccc23)N2CCCC2)cc1 (configuration not stated) | inconclusive: 1.16 µM [activator, single point] |  |
| CSc1ccccc1NC(=O)CN(C)C(=O)Cc1c(F)cccc1Cl | inactive |  |
| COc1ccccc1NC(=O)c1cc(Cl)nnc1Cl | inconclusive: 29.1 µM [inhibitor, single point] |  |
| COc1ccccc1Sc1nc(-c2ccccn2)ncc1OC | active: 23.1 µM |  |
| O=C(NCc1nnc(SCc2ccc(C(F)(F)F)cc2)n1-c1ccccc1)C12CC3CC(CC(C3)C1)C2 | inconclusive: 25.9 µM [inhibitor, single point] |  |
| CCOC(=O)C1CCCN(C2=NC(=O)/C(=C/c3ccc(OC)cc3OC)S2)C1 (configuration not stated) |  | inconclusive: 13% [activator] |
| COC(=O)c1cccc(NC(=O)CCc2ccccc2)c1 | inconclusive: 20.6 µM [activator, single point] |  |
| COc1ccc(NC(=O)COc2ccccc2)cc1NC(=O)c1ccco1 | inconclusive: 29.1 µM [inhibitor, single point] |  |

Sorted by length of the SMILES (falling): part of the list above.

| SMILES | Potency | activity change, negative = inhibition |
| --- | --- | --- |
| COc1ccc(C(=O)/C=C/C(=O)N(CC(=O)NC2CCCCC2)CC2CCCO2)c(O)c1 (configuration not stated) | inconclusive: 29.1 µM [inhibitor, single point] |  |
| O=S(=O)(c1ccc2nc(N3CCN(c4ccccc4)CC3)ccc2c1)N1CCCCC1 | inactive |  |
| C=CCn1c(SCC(=O)c2ccc(O)c(O)c2)nnc1-c1cccc(C)c1 | inactive |  |
